The values below come from article PMC11087760.

Protein sequences, listed by entry. Tags and fused reporters are not part of them. Lines headed by an entry give the natural chain unless they say otherwise; changes in a name come on top.
UniProt P41546: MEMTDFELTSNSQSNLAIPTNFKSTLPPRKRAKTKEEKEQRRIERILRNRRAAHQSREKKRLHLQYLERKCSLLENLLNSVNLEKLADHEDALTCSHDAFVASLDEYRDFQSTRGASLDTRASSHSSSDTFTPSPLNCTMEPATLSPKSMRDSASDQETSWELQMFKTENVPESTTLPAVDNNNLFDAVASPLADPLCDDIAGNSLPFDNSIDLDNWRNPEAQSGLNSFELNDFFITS

For at least one entry, the source does not settle the construct or the ends of the probe. A negative result means that nothing was seen under these conditions.

The target of this series is GST-Hac1 (Saccharomyces cerevisiae) (UniProt P41546). The experiment in a line: EMSA. The note with it: Beyotime Chemiluminescent EMSA Kit per manufacturer, probes annealed in 10 mM Tris-HCl pH 8.0, 1 mM EDTA, binding buffer, salt and temperature not stated, recombinant protein, protein details: GST, label: 5' biotin.

With “GCGAAAAGGATTACGTGTCCTCAAAATCTC (double strand) [m84 probe]”, the binding result (higher affinity than UPRE2) is reported as “binds”. Same read-out and setting: the entry for “GCGAAGCGGTTTACGTGTCAAAAGTGTCTC (double strand) [m94 probe]” is “binds”. As to “GCGATACGGAGTACGTGTCATAAAAACCTC (double strand) [UPRE2 probe]”, for the setting “lower affinity than m82, m84, m86, m94”, the binding result is listed as “binds”. Regarding “GCGCAGTGGGTTACGTGTCATCAGAGCCTC (double strand) [m86 probe]”, the binding result (higher affinity than UPRE2) is “binds”. As to “GCGCCTTCTATTACCTTCTGCTCTCTCCTC (double strand) [TDH3 probe]”, the binding result was “no binding”. As for “GCGTTTACGGGTACGTGTCCTCAAAAGCTC (double strand) [m82 probe]”, the binding result (higher affinity than UPRE2) is listed as “binds”.
